Drawing on paper PMC3221503, “Study on Cytochrome P-450 Dependent Retinoic Acid Metabolism and its Inhibitors as Potential Agents for Cancer Therapy” (Scientia Pharmaceutica, 2011), this text covers inhibition for one compound.

The subject of this data set is cytochrome P-450 dependent retinoic acid metabolism. Nature of the data set: RA metabolism assay: in vitro inhibition of retinoic acid metabolism by P-450 inhibitors. The settings on record: male, rat, rat liver microsomes, pH 7.4, probe 3H-retinoic acid (RA), 3 μM. (Liver microsomes are a subcellular fraction often used to study metabolism.)

`Clc1ccc(CSC(Cn2ccnc2)c2ccc(Cl)cc2Cl)cc1` (stereo not shown) [Sulconazole]: the inhibition (usually the drop in the measured response relative to a control, in per cent) at 15 min, 100 μM came to 8.7%.
